Measurements from PMC6189638.
These are yes or no findings as the source states them, for the method shown.

Target: human soluble Epoxide Hydrolase C-terminal domain (hsEH CTD) (human) (UniProt P34913)
Assay: SEC; HiLoad 16/600 Superdex 75pg; 137 mM NaCl, 2.7 mM KCl, 10 mM Na2HPO4, 3 mM KH2PO4, pH 7.4, 0.2 mM EDTA, 1 mM DTT, 5% glycerol; final purification step; both purified

binding: no binding
B1: human soluble Epoxide Hydrolase C-terminal domain (hsEH CTD) (domain or fragment, UniProt P34913 230-555)
chain: TSCNPSDMSHGYVTVKPRVRLHFVELGSGPAVCLCHGFPESWYSWRYQIPALAQAGYRVLAMDMKGYGESSAPPEIEEYCMEVLCKEMVTFLDKLGLSQAVFIGHDWGGMLVWYMALFYPERVRAVASLNTPFIPANPNMSPLESIKANPVFDYQLYFQEPGVAEAELEQNLSRTFKSLFRASDESVLSMHKVCEAGGLFVNSPEEPSLSRMVTEEEIQFYVQQFKKSGFRGPLNWYRNMERNWKWACKSLGRKILIPALMVTAEKDFVLVPQMSQHMEDWIPHLKRGHIEDCGHWTQMDKPTEVNQILIKWLDSDARNPPVVSKM
